From PMC4728409 come the findings set out here.

Protein sequences, listed by entry. Tags and fused reporters are not part of them.
UniProt Q12888: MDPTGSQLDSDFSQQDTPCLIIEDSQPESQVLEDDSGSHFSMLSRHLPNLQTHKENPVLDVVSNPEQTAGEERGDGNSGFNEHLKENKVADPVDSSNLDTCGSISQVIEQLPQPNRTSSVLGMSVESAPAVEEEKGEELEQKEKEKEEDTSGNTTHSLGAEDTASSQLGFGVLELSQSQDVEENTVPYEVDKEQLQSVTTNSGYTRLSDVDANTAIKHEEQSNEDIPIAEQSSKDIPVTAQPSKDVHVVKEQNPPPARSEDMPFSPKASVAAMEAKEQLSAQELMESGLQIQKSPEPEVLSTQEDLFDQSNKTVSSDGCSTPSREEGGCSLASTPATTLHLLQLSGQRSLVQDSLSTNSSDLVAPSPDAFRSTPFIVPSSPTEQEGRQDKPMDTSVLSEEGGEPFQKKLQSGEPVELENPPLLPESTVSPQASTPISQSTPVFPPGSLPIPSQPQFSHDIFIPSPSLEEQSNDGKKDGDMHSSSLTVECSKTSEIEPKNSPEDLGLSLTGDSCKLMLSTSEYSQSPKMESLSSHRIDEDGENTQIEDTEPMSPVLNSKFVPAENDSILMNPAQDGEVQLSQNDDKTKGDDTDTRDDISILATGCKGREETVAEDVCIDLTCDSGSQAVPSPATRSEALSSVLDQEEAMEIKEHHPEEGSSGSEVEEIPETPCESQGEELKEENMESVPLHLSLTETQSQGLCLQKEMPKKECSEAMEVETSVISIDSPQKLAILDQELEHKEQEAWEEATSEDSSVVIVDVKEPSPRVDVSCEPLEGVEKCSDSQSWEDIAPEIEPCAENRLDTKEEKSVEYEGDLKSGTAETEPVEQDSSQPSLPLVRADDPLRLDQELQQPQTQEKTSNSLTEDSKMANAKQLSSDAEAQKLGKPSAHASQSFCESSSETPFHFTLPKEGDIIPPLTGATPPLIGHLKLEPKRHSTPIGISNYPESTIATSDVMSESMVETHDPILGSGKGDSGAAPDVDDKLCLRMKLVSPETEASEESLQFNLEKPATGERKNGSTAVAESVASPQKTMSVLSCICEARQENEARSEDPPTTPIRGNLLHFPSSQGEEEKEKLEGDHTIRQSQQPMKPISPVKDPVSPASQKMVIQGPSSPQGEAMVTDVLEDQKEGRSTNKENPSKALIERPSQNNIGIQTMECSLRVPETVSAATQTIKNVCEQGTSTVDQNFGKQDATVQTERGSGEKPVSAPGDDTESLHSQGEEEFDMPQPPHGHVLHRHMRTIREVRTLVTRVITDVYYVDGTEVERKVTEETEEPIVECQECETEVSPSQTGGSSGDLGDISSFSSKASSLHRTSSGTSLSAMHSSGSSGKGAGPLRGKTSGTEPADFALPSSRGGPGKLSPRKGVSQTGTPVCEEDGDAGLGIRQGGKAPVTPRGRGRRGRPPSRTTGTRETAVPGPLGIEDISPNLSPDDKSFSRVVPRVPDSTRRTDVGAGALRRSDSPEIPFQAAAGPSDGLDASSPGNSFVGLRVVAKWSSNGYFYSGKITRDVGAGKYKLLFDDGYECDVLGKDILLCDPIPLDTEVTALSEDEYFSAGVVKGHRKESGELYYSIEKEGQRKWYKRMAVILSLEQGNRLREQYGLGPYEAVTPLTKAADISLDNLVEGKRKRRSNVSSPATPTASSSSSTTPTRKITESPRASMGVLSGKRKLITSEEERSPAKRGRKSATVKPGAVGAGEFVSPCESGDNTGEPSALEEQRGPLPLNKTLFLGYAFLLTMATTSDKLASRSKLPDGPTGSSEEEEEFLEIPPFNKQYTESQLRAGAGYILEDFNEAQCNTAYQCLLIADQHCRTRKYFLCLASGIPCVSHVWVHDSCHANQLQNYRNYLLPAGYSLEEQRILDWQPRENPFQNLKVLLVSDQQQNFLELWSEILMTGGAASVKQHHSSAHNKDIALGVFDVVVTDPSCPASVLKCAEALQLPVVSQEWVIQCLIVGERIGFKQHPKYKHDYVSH
UniProt Q5UIP0: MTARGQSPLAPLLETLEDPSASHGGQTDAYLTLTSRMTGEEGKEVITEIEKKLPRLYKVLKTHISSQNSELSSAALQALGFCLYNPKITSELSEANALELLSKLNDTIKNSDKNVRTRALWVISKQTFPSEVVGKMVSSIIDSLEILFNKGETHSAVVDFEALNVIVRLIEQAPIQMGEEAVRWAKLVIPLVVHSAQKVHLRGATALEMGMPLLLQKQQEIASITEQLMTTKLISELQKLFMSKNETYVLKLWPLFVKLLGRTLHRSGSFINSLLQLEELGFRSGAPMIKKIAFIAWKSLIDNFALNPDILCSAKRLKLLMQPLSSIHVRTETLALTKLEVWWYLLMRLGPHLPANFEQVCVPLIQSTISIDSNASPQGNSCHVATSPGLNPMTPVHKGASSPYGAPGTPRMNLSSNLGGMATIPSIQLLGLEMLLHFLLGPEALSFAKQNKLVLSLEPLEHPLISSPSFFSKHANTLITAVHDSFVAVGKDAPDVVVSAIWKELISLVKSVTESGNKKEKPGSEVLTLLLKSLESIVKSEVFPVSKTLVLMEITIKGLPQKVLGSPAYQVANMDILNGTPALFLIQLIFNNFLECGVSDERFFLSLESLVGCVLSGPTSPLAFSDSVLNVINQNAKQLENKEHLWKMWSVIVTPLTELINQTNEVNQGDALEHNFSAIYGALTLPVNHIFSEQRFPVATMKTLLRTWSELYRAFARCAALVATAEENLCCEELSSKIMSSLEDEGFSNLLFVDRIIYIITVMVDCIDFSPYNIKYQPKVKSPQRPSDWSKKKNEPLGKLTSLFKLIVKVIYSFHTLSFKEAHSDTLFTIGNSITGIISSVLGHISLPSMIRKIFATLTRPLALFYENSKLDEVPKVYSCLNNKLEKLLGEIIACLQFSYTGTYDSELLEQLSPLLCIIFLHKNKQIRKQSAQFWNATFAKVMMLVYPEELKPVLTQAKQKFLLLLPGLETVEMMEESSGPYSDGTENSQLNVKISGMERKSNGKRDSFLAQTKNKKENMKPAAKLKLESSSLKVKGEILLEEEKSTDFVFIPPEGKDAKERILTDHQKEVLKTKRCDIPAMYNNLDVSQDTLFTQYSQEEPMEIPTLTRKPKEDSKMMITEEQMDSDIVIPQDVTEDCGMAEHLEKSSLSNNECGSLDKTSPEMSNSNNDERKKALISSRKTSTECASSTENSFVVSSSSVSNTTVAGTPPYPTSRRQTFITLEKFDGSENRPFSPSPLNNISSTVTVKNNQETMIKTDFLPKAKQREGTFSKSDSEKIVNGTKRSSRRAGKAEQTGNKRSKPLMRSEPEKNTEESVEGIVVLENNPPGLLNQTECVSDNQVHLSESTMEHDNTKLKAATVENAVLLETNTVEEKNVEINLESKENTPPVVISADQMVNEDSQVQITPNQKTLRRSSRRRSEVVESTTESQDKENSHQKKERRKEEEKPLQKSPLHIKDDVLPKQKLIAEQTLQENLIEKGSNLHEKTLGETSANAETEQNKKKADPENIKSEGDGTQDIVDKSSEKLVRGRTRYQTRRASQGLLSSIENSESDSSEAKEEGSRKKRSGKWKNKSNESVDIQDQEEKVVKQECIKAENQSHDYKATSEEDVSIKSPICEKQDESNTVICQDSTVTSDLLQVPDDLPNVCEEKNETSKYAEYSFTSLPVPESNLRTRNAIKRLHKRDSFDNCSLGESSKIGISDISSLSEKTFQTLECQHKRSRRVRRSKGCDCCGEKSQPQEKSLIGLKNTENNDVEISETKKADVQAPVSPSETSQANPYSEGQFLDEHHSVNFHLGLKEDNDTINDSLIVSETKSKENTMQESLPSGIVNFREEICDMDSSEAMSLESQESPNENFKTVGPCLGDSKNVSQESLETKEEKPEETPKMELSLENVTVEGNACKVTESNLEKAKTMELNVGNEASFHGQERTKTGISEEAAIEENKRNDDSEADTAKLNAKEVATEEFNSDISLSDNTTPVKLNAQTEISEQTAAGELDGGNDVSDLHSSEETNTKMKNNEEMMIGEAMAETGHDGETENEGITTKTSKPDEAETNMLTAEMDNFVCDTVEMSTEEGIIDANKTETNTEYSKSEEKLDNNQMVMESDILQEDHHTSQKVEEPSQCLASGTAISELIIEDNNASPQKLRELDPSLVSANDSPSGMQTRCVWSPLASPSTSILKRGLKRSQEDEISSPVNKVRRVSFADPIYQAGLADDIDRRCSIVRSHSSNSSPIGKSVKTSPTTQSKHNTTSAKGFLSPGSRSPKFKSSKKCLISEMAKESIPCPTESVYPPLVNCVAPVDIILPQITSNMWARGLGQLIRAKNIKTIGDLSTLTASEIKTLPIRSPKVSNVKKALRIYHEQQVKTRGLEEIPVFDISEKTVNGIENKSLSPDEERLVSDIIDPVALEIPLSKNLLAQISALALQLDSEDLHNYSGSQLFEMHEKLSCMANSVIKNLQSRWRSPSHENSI

Assay [1] concerns the target 53BP1 (in HEK 293T cells stably expressing UHRF1 shRNA) (UniProt Q12888). In words: co-IP; HEK 293T cells stably expressing UHRF1 shRNA, transfected with the indicated constructs; G1 phase, or S phase with UHRF1 S674A or H754A.
The target is the same in assay [2]. Put plainly: co-IP; HEK 293T cells stably expressing UHRF1 shRNA, transfected with the indicated constructs, synchronized at S phase.

These are yes or no findings as the source states them, for the method shown. In cells and extracts the contact can be indirect. Some entries that bind do so weakly or less than the wild type.

For the substance “RIF1 (in HEK 293T cells stably expressing UHRF1 shRNA) (from UniProt Q5UIP0 1-2472)”, the binding entry is on record as “binds” in assay [1] and “no binding (condition: cells synchronized at S phase)” in assay [2].
